Measurements: patent US20090137664A1, “SAURURUS CERNUUS COMPOUNDS THAT INHIBIT CELLULAR RESPONSES TO HYPOXIA” (priority 2003, published 2009)
Some of these results come from one statement about several compounds together.

System: HIF-1
Experiment: pTK-HRE3-luc reporter assay, 1,10-phenanthroline-induced HIF-1 activation in T47D cells
Type: cell-based, human
From the text: Iron chelators and transition metals (such as cobalt and nickel) can activate HIF-1 and have been used as chemical hypoxia mimetics. […] The expression of the HIF-1α subunit quantitatively determines HIF-1 biological activity (activation of transcription).

SMILES: COc1ccc([C@@H](O)[C@@H](C)Oc2ccc([C@H]3O[C@H](c4ccc(O[C@H](C)[C@H](O)c5ccc6c(c5)OCO6)c(OC)c4)[C@H](C)[C@H]3C)cc2OC)cc1OC [Compound 2, manassantin B]
- specificity index SI=[IC50 for pTK-HRE3-luc by 1,10-phenanthroline]/[IC50 for pTK-HRE3-luc by hypoxia]: > 33
